# Taken from: PubChem BioAssay AID1259254 (NCATS, 2017)
# Purpose: 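Finding genes that stop cells copying their DNA twice in one cycle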 (primary screen)
# System: human HCT116 colorectal cancer cells
# Knock-down reagent: single siRNA against human genes
# Duration: 3 days
# Measured: 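Imaged Hoechst DNA stain sorts each cell into a cycle phase by DNA amount; per plate, G2 fraction set to 0% for non-targeting and 100% for GMNN siRNA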
# Direction: G2 robust z-score: higher = more G2 cells, more excess DNA replication
# Rule for the call: 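An siRNA counts as active if its G2 robust z-score lies at least 5 MADs above the screen median; here such calls match roughly 38% of GMNN control or more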
# In all, the deposit lists about 59,000 reagents; shown is a part drawn at random. Over the whole deposit, about 1,550 (2.6%) got an active call. 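G2 share is only a proxy for re-replication; each gene was hit by three separate siRNAs, and active genes were retested.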 Entries without a mark were called inactive. The numbers tell different reagents against one gene apart. Not all columns of the deposit are shown. Not given: the amount of reagent.
gene,reagent,G2 robust z-score
PPP2R5D (protein phosphatase 2 regulatory subunit B'delta),1,3.64
PPP2R5D (protein phosphatase 2 regulatory subunit B'delta),2,2.02
PPP2R5D (protein phosphatase 2 regulatory subunit B'delta),3,0.346
AP1M1 (adaptor related protein complex 1 subunit mu 1),1,0.122
AP1M1 (adaptor related protein complex 1 subunit mu 1),2,2.55
AP1M1 (adaptor related protein complex 1 subunit mu 1),3,-0.58
GNAQ (G protein subunit alpha q),1,0.0272
GNAQ (G protein subunit alpha q),2,-0.356
GNAQ (G protein subunit alpha q),3,2.04
DCTN3 (dynactin subunit 3),1,0.806
DCTN3 (dynactin subunit 3),2,2.63
DCTN3 (dynactin subunit 3),3,0.556
TTC34 (tetratricopeptide repeat domain 34),1,-0.153
TTC34 (tetratricopeptide repeat domain 34),2,-0.217
TTC34 (tetratricopeptide repeat domain 34),3,-0.471
TTC34 (tetratricopeptide repeat domain 34),4,-0.632
TTC34 (tetratricopeptide repeat domain 34),5,-0.326
TTC34 (tetratricopeptide repeat domain 34),6,2.26
HOXA13 (homeobox A13),1,0.237
HOXA13 (homeobox A13),2,-0.135
HOXA13 (homeobox A13),3,0.325
CASP5 (caspase 5),1,3.46
CASP5 (caspase 5),2,-0.388
CASP5 (caspase 5),3,1.98
GNG13 (G protein subunit gamma 13),1,0.303
GNG13 (G protein subunit gamma 13),2,-0.583
GNG13 (G protein subunit gamma 13),3,1.02
OR7G1 (olfactory receptor family 7 subfamily G member 1),1,1.43
OR7G1 (olfactory receptor family 7 subfamily G member 1),2,3.69
OR7G1 (olfactory receptor family 7 subfamily G member 1),3,-0.0141

Records listed so far whose target name starts with T or t:
gene,reagent,G2 robust z-score
TTC34 (tetratricopeptide repeat domain 34),1,-0.153
TTC34 (tetratricopeptide repeat domain 34),2,-0.217
TTC34 (tetratricopeptide repeat domain 34),3,-0.471
TTC34 (tetratricopeptide repeat domain 34),4,-0.632
TTC34 (tetratricopeptide repeat domain 34),5,-0.326
TTC34 (tetratricopeptide repeat domain 34),6,2.26
